In US20250320282A1 (MABYLON, published 2025):
Residue numbers refer to the chain shown, from its start. These are yes or no findings as the source states them, for the method shown. Some binding calls cover weakened binding; strength is not graded here. Where a sequence is shown, tags or fusion partners need not be part of it. Blank lines part the entries; values can stand above or below the binder they belong to.

Experiments:
[1] = molecular target: T1, Ara h 2 (Arachis hypogaea allergen 2) (Arachis hypogaea, UniProt Q6PSU2 22-172); assay: ELISA, Fab titration on coated Ara h 2
T1 construct: Peanut allergen; also called nAra h 2; natural Ara h 2
T1 sequence: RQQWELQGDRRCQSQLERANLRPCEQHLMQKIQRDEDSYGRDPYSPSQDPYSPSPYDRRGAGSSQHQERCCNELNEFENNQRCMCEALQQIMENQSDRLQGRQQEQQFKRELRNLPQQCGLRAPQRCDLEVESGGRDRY

[2] = molecular target: T1, Ara h 2 (Arachis hypogaea allergen 2); assay: ELISA, scFv-Fc
[3] = molecular target: T1, Ara h 2 (Arachis hypogaea allergen 2); assay: ELISA on Ara h2, scFv-Fc

- binding [1]: binds
B1: MY006-2F8 Fab Hg (Fab, V domains shown)
VH: EVQLVESGGGLVQPGGSLRLSCAASGFIFSDYNMNWVRQAPGKGLEWVSSITRSSRTIYYADSVKGRFTISRDNAKNSLYLQMNSLRDEDTAVYYCAREDFDVSTGPYYMDVWGKGTTVTVSS
VL: EIVLTQSPGTLSLSPGERATLSCRASQSVSNMFLVWYQQKPGQAPRLLMYGASTRATDIPDRFSGSGSGTDFTLTISRLEPEDFAVYYCQQNGNSPYTFGQGTKLEIK
notes: Germlined variant, IgG1-Fab format; also called 2F8 Hg

- binding [1]: binds
B2: MY006-2F8 Fab Lg (Fab, V domains shown)
VH: B1 VH with Q13K, Y80H, E89A, K115N, T120I
VL: B1 VL with D58G
notes: Germlined variant, IgG1-Fab format; also called 2F8 Lg

- binding [1]: binds
B3: MY006-2F8 Fab Hg Lg (Fab, V domains shown)
VH: B1 VH
VL: B1 VL with D58G
notes: Germlined variant, IgG1-Fab format

- binding [1]: binds
B4: MY006-2F8 Fab Hg Lf (Fab, V domains shown)
VH: B1 VH
VL: B1 VL with M49I, D58G
notes: Germlined variant, IgG1-Fab format; also called 2F8: Hg/Lf

- binding [1]: binds
B5: MY006-2F8 Fab Lf (Fab, V domains shown)
VH: B1 VH with Q13K, Y80H, E89A, K115N, T120I
VL: B1 VL with M49I, D58G
notes: Germlined variant, IgG1-Fab format; also called 2F8 Lf

- binding [2]: binds
- binding [3]: binds
B6: 7G6_G2 (Fc fusion, not shown: a dimerising Fc or GST; small tags and cut ends)
scFv: EIVLTQSPLSLPVTLGQPASISCRSSQSLVHRNGYNYLDWFHQRPGQSPRRLIYMASKRASGVPDRFSGSGSGTDFTLKISRVDAEDVGVYYCMQALQTWTFGQGTKLTVLGGGGSGGGGSGGGGSGGGGSEVQLVETGGGLVQPGGSLRLSCAASGFAFNDYTMHWVRQAPGKGLEWVSAISYGGTNKYYADSVKGRFTISRDNSKDTLYLHMNSLRAEDTAVYYCARDSGYRSLLHWGQGTLVTVSS

- binding [2]: binds
- binding [3]: binds
B7: 7G6_G4 (Fc fusion, not shown: a dimerising Fc or GST; small tags and cut ends)
scFv: EIVLTQSPLSLPVTLGQPASISCRSSQSLVHRNGYNYLDWFHQRPGQSPRRLIYMASKRASGVPDRFSGSGSGTDFTLKISRVDAEDVGVYYCMQALQTWTFGQGTKLTVLGGGGSGGGGSGGGGSGGGGSQVQLVQSGGGLVQPGGSLRLSCAASGFAFNDYTMHWVRQAPGKGLEWVSAISYGGTNKYYADSVKGRFTISRDNGKKSLYLQMNSLIPEDTALYYCAKDSGYRSLLHWGQGTTVTVSS

- binding [1]: binds
B8: MY006-17H9 Fab Hg (Fab, V domains shown)
VH: QVQLVESGGGVVQPGRSLRLSCAASGSTLGTYGMHWVRQAPGKGLEWVAIISPDGGHQDYADPVRGRFTVSRDNSKNTLYLQMNSLRAEDTAVYYCATTLCARTDCTWVRSDSWGQGTLVTVSS
VL: ANVLTQSPGTLSLSPGERATLSCRASQRVSGDYLAWYQQKRGQAPRLLIYGASSRATGIPDRFSGSGSGTDFTLTISRLEPEDFAVYYCQHYNGPPVTFGQGTKLEIK

- binding [1]: binds
B9: MY006-17H9 Fab Hg_LgA1E (Fab, V domains shown)
VH: B8 VH
VL: B8 VL with A1E, R41P

- binding [1]: binds
B10: MY006-17H9 Fab Hf (Fab, V domains shown)
VH: B8 VH with V70I
VL: B8 VL

- binding [1]: binds
B11: MY006-17H9 Fab Lg (Fab, V domains shown)
VH: B8 VH with V5E, S7Y, A23V, N84D, S85N, A88V
VL: B8 VL with R41P

- binding [1]: binds
B12: MY006-17H9 Fab Hf_LgN2I (Fab, V domains shown)
VH: B8 VH with V70I
VL: B8 VL with N2I, R41P

- binding [1]: binds
B13: MY006-17H9 Fab Hf Lf (Fab, V domains shown)
VH: B8 VH with V70I
VL: B8 VL with A1E, N2I, R41P

- binding [1]: binds
B14: MY006-17H9 Fab Hg Lg (Fab, V domains shown)
VH: B8 VH
VL: B8 VL with R41P

- binding [1]: binds
B15: MY006-17H9 Fab Hg_LgN2I (Fab, V domains shown)
VH: B8 VH
VL: B8 VL with N2I, R41P

- binding [1]: binds
B16: MY006-17H9 Fab Hf Lg (Fab, V domains shown)
VH: B8 VH with V70I
VL: B8 VL with R41P

- binding [1]: binds
B17: MY006-17H9 Fab Hf_LgA1E (Fab, V domains shown)
VH: B8 VH with V70I
VL: B8 VL with A1E, R41P

- binding [1]: binds
B18: MY006-17H9 Fab Lf (Fab, V domains shown)
VH: B8 VH with V5E, S7Y, A23V, N84D, S85N, A88V
VL: B8 VL with A1E, N2I, R41P

- binding [1]: binds
B19: MY006-17H9 Fab Hg Lf (Fab, V domains shown)
VH: B8 VH
VL: B8 VL with A1E, N2I, R41P

- binding [2]: binds
- binding [3]: binds
B20: 7G6_G1 (Fc fusion, not shown: a dimerising Fc or GST; small tags and cut ends)
scFv: EIVLTQSPATLSLSPGERATLSCRSSQSLVHRNGYNYLDWYQQKPGQAPRLLIYMASKRASGVPARFSGSGSGTDFTLTISSLEPEDSALYYCMQALQTWTFGGGTKLEIKGGGGSGGGGSGGGGSGGGGSEVQLVETGGGLVQPGGSLRLSCAASGFAFNDYTMHWVRQAPGKGLEWVSAISYGGTNKYYADSVKGRFTISRDNSKDTLYLHMNSLRAEDTAVYYCARDSGYRSLLHWGQGTLVTVSS

B21: MY006-7G6 Fab Hg Lg (Fab, V domains shown)
VH: QVQLVESGGGVVQPGRSLRLSCAASGIAFNDYTMHWVRRAPGKGLEWVAAISYGGTNKYYADSVKGRFTISRDSSKNTLYLQMNSLRAEDTAVYYCARDSGYRSLLHWGQGTLVTVSS
VL: EIVLTQSPLSLPVTPGEPASISCRSSQSLVHRNGYNYLDWYLQKPGQSPQLLIYMASKRASGVPDRFSGSGSGTDFTLKISRVEAEDVGVYYCMQALQTWTFGQGTKVEIK
notes: as for B3
- binding [1]: binds

B22: MY006-7G6 Fab Hf Lg (Fab, V domains shown)
VH: B21 VH with R39Q, S74N
VL: B21 VL
notes: Germlined variant, IgG1-Fab format; also called 7G6: Hf/Lg
- binding [1]: binds

B23: MY006-7G6 Fab Hf Lf (Fab, V domains shown)
VH: B21 VH with R39Q, S74N
VL: B21 VL with E1D, L4M
notes: as for B3
- binding [1]: binds

- binding [1]: binds
B24: MY006-7G6 Fab Lf (Fab, V domains shown)
VH: B21 VH with A40S, G42D, Y80F, N84D, A88V
VL: B21 VL with E1D, L4M
notes: Germlined variant, IgG1-Fab format; also called 7G6 Lf

B25: MY006-7G6 Fab Hg Lf (Fab, V domains shown)
VH: B21 VH
VL: B21 VL with E1D, L4M
notes: as for B3
- binding [1]: binds

- binding [1]: binds
B26: MY006-7G6 Fab Lg (Fab, V domains shown)
VH: B21 VH with A40S, G42D, Y80F, N84D, A88V
VL: B21 VL
notes: Germlined variant, IgG1-Fab format; also called 7G6 Lg

B27: MY006-7G6 Fab Hf (Fab, V domains shown)
VH: B21 VH with R39Q, S74N
VL: B21 VL with D75E, V90I, I110V, K111N
notes: Germlined variant, IgG1-Fab format; also called 7G6 Hf
- binding [1]: binds

B28: MY006-7G6 Fab Hg (Fab, V domains shown)
VH: B21 VH
VL: B21 VL with D75E, V90I, I110V, K111N
notes: Germlined variant, IgG1-Fab format; also called 7G6 Hg
- binding [1]: binds

B29: MY006-15E3 Fab Hg Lg (Fab, V domains shown)
VH: EVQLVESGGGLVQPGGSLRLSCAASGFKFSTFYMTWIRQAPGKGLEWVANIKQDGSEKDYLDSVRGRFTISRDNAKSSLYLQMNSLRAEDTAVYYCTRNGLQDSYSGDFFDHWGQGTLVTVSS
VL: QSVLTQPPSVSAAPGQKVTISCSGTGSNIGHNYVSWYQQLPGTAPKLLIFDNTKRPSGIPDRFSGSKSGSSATLGITGLQTGDEADYFCATWDADLSAVLFGGGTKLTVL
notes: as for B3
- binding [1]: binds

B30: MY006-15E3 Fab Hf Lg (Fab, V domains shown)
VH: B29 VH with I37V, S77N
VL: B29 VL
notes: Germlined variant, IgG1-Fab format; also called 15E3: Hf/Lg
- binding [1]: binds

B31: MY006-15E3 Fab Hg (Fab, V domains shown)
VH: B29 VH
VL: B29 VL with V10I, G42R, K46R, D86H
notes: Germlined variant, IgG1-Fab format; also called 15E3 Hg
- binding [1]: binds

B32: MY006-15E3 Fab Lg (Fab, V domains shown)
VH: B29 VH with G10A, T69N, S78V, S85T, R87S, E89D, A92G, T117I
VL: B29 VL
notes: Germlined variant, IgG1-Fab format; also called 15E3 Lg
- binding [1]: binds

B33: MY006-15E3 Fab Hf Lf (Fab, V domains shown)
VH: B29 VH with I37V, S77N
VL: B29 VL with F50Y, S70T, F88Y
notes: as for B3
- binding [1]: binds

B34: MY006-15E3 Fab Lf (Fab, V domains shown)
VH: B29 VH with G10A, T69N, S78V, S85T, R87S, E89D, A92G, T117I
VL: B29 VL with F50Y, S70T, F88Y
notes: Germlined variant, IgG1-Fab format; also called 15E3 Lf
- binding [1]: binds

B35: MY006-15E3 Fab Hg Lf (Fab, V domains shown)
VH: B29 VH
VL: B29 VL with F50Y, S70T, F88Y
notes: as for B3
- binding [1]: binds

B36: MY006-15E3 Fab Hf (Fab, V domains shown)
VH: B29 VH with I37V, S77N
VL: B29 VL with V10I, G42R, K46R, D86H
notes: Germlined variant, IgG1-Fab format; also called 15E3 Hf
- binding [1]: binds
